In article PMC10348774:
These are yes or no findings as the source states them, for the method shown. In cells and extracts the contact can be indirect. Some results given as binding are weak or reduced against the parent protein; the word gives no strength.

Chains of the proteins cited; added tags and fusions are not shown. Residues count along the entry.
UniProt O14672, residues 20-748: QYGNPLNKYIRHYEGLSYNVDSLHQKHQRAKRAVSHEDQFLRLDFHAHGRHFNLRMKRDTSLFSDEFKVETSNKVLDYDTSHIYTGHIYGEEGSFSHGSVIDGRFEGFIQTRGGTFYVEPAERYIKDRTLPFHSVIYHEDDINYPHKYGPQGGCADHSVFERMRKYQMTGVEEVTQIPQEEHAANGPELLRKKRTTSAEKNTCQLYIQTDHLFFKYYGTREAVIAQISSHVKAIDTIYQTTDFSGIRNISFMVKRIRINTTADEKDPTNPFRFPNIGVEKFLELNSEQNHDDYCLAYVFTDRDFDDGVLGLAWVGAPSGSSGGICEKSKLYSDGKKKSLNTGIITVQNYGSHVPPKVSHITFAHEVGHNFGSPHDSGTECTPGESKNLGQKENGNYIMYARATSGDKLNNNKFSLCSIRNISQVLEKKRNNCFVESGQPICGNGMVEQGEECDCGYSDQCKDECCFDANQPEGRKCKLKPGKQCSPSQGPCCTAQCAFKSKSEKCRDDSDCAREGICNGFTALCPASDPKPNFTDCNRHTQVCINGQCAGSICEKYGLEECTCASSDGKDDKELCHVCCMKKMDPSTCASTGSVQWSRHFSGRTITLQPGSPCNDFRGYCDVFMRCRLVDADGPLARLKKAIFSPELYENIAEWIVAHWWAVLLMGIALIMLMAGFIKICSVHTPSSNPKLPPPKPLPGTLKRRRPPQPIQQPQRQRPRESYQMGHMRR
UniProt Q86TM6: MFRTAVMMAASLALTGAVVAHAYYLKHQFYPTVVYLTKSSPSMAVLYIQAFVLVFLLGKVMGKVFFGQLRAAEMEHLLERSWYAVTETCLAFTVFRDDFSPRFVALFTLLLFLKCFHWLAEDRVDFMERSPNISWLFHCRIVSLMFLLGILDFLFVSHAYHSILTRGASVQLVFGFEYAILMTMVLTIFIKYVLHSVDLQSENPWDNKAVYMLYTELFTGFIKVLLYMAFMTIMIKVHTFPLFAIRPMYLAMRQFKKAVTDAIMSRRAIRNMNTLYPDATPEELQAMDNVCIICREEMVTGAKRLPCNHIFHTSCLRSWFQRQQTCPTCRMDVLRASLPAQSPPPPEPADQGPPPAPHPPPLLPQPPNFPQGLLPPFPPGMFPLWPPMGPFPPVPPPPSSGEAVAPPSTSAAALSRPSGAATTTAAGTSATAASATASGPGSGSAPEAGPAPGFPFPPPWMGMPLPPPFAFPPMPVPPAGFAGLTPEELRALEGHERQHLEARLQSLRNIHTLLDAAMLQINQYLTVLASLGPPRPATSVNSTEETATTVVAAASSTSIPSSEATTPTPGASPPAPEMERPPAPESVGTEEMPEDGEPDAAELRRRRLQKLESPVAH

Biological target: unglycosylated precursor ADAM10 (unglycosylated preADAM10), endogenous (human (endogenous in SK-BR-3)) (UniProt O14672)
Assay: co-IP; co-IP of endogenous HRD1 and ADAM10 in SK-BR-3-shDPAGT1#1 cells treated with MG132

In the case of “synoviolin 1 (SYVN1, also known as HRD1) (from UniProt Q86TM6 1-617) (enzyme)”, the binding was “binds”.
